One assay addresses T1, ETS1 (UniProt P14921).
T1 sequence: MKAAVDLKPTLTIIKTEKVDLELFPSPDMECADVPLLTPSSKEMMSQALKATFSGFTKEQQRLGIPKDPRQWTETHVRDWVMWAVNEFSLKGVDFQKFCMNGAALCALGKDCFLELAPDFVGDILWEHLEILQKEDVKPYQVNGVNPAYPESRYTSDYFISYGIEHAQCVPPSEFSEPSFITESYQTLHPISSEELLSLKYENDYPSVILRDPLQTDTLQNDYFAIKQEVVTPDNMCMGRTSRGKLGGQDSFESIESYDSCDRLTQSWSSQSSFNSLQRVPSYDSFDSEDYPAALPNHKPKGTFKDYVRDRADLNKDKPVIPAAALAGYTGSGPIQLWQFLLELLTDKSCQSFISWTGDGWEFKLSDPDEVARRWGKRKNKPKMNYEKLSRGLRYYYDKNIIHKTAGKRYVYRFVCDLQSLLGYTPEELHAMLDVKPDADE
The assay is described as follows: DAPPL (digital affinity profiling via proximity ligation, sequencing). The conditions noted are these: 10 mM Tris-HCl pH 7.5, 50 mM NaCl, 1 mM DTT, 4% glycerol, room temperature, 30 min; GST-TFs on glutathione beads, 16-mer random dsDNA library, 0.1% …; high values mean tight binding; double strand, one strand shown; scale: fold enrichment (6-mer frequency, TF over GST control).

For another assay, the target named is T2, SPDEF (UniProt O95238).
T2 sequence: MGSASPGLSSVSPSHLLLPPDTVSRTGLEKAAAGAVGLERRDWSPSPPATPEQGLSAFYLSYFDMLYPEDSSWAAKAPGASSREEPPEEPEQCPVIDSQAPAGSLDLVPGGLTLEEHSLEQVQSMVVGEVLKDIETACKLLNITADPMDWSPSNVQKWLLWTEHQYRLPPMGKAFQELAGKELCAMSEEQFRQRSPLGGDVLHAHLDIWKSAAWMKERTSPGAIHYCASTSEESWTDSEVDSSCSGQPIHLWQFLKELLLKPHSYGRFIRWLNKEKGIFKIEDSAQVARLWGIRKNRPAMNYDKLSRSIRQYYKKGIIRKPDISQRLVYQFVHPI
The assay is described as above. The conditions noted are these: 10 mM Tris-HCl pH 7.5, 50 mM NaCl, 1 mM DTT, 4% glycerol, room temperature, 30 min; GST-TFs on glutathione beads, 16-mer random dsDNA library, 0.1% …; high values mean tight binding; double strand, one strand shown; scale: fold enrichment (6-mer frequency, TF over GST control).

The entries are a selection whose mix differs from that of the whole data set. For part of these data: At the low end of the ranking, values are background and their order means little. The list shows a part of the results. For part of these data: Construct or isoform of the protein are uncertain.

In the case of ATCTGC, the binding signal in the assay with ETS1 was determined as 1.31; with SPDEF, 1.36.
For TATTTG, the binding signal with ETS1 came out at 1.45; with SPDEF, 1.32.
Turning to TCCGCC, the values for the binding signal in the assay with ETS1 and with SPDEF were 1.54 and 1.83, respectively.
For TAGCGC, the binding signal in the assay with ETS1 came to 0.982; in the assay with SPDEF, 0.898.
On to AACTGA, for which the binding signal was found to be 1.22 with ETS1 and 0.995 in the assay with SPDEF.
Take CCATTA: the binding signal in the assay with ETS1 came to 1.12; in the assay with SPDEF, 0.959.
For the sequence CTCGCG, the binding signal came out at 1.37 in the assay with ETS1 and 1.4 in the assay with SPDEF.
TTATCC: the results for the binding signal in the assay with ETS1 and with SPDEF were 1.41 and 1.76, respectively.
On to TGCGCC, for which the binding signal with ETS1 turned out to be 1.22; with SPDEF, 1.07.
On the same counts, the results for GTCCCC are 1.21 and 1.14.
For the sequence CAATGG, the binding signal with ETS1 stood at 1.05; in the assay with SPDEF, 0.895.
Regarding TGCCCA, the binding signal with ETS1 was 1.22; in the assay with SPDEF, 1.12.
For the sequence GAAACG, the binding signal amounted to 1.27 with ETS1 and 1.23 in the assay with SPDEF.
With CCCACC, the figures for the binding signal with ETS1 and in the assay with SPDEF were 1.27 and 1.12, respectively.
With GCAAAC, the values for the binding signal with ETS1 and in the assay with SPDEF were 0.994 and 0.968, respectively.
In the case of TATCAA, the values for the binding signal with ETS1 and in the assay with SPDEF were 1.06 and 0.947, respectively.
On the same counts, the results for CGTAGC are 1.06 and 0.987.
The corresponding values for CTACTA are 1.36 and 1.28.
The corresponding values for GCCCAC are 1.14 and 1.06.
Turning to TAGCTT, the binding signal with ETS1 turned out to be 1.29; with SPDEF it was 1.08.
On the same counts, the results for CTTCTC are 1.44 and 1.33.
ATAGCG: the binding signal worked out at 0.927 in the assay with ETS1 and 0.899 with SPDEF.
Regarding ATGTGG, the binding signal with ETS1 turned out to be 1.11; with SPDEF it was 1.05.
With ACGCCT, the binding signal with ETS1 was 1.24; with SPDEF, 1.12.
Consider AAGGAT, for which the binding signal in the assay with ETS1 stood at 1.14; in the assay with SPDEF, 1.37.
For TCTGGA, the figures for the binding signal with ETS1 and with SPDEF were 1.02 and 0.962, respectively.
For the sequence CAGCTA, the binding signal in the assay with ETS1 came out at 1.05; with SPDEF it was 0.881.
For ATGGCA, the binding signal with ETS1 was found to be 1.32; in the assay with SPDEF, 1.1.
Consider TCATTG, for which the binding signal with ETS1 was 1.02; with SPDEF, 0.908.
On the same counts, the results for AGTATT are 1.29 and 1.05.
With ACAGCA, the binding signal with ETS1 stood at 0.961; with SPDEF, 0.984.
On the same counts, the results for CTTAAA are 1.23 and 1.27.
For the sequence CATGGG, the binding signal with ETS1 worked out at 1.02; with SPDEF, 0.98.
On to TGGTCA, for which the binding signal is 1.13 with ETS1 and 0.972 with SPDEF.
In the case of AAAGCC, the binding signal with ETS1 was determined as 1.05; with SPDEF it was 0.863.
Take GCGCCT: the binding signal came to 1.12 with ETS1 and 0.946 in the assay with SPDEF.
Regarding GCAATC, the binding signal with ETS1 was 1; with SPDEF, 0.976.
TAAAGC: the values for the binding signal with ETS1 and in the assay with SPDEF were 1.14 and 0.984, respectively.
On the same counts, the results for CTAGCA are 1.19 and 1.16.
As to TCCGCT, the binding signal with ETS1 stood at 2.17; with SPDEF, 2.51.
For AAGGCA, the results for the binding signal with ETS1 and with SPDEF were 1.01 and 0.897, respectively.
On the same counts, the results for CTCTCC are 1.41 and 1.22.
Take CATCAA: the binding signal with ETS1 was determined as 1.05; with SPDEF, 0.964.
Turning to TAAAGG, the binding signal with ETS1 came to 1.01; with SPDEF, 0.925.
For CGTCGC, the figures for the binding signal with ETS1 and with SPDEF were 1.05 and 1.24, respectively.
Turning to CGGCAC, the binding signal with ETS1 turned out to be 0.883; with SPDEF, 1.02.
On the same counts, the results for CCTCAG are 1.25 and 1.1.
For TGATCC, the binding signal amounted to 1.19 with ETS1 and 1.63 with SPDEF.
Regarding TGACCC, the binding signal in the assay with ETS1 is 1.37; in the assay with SPDEF, 1.49.
In the case of TTGGCG, the binding signal stood at 1.05 with ETS1 and 0.952 in the assay with SPDEF.
With GGTATC, the results for the binding signal with ETS1 and with SPDEF were 1.1 and 1.33, respectively.
On the same counts, the results for CTTATA are 1.45 and 1.51.
As for TCTGTA, the binding signal was 1.28 in the assay with ETS1 and 1.26 in the assay with SPDEF.
Regarding TTGTAT, the binding signal with ETS1 amounted to 1.27; in the assay with SPDEF, 1.41.
For GTAGCT, the binding signal in the assay with ETS1 turned out to be 1.12; in the assay with SPDEF it was 0.923.
On the same counts, the results for CGCTTA are 1.13 and 1.3.
Turning to CATGAC, the binding signal worked out at 1.17 in the assay with ETS1 and 1.2 in the assay with SPDEF.
Take CCGCAT: the binding signal with ETS1 is 1.6; in the assay with SPDEF, 1.64.
On to GCAACC, for which the results for the binding signal in the assay with ETS1 and in the assay with SPDEF were 1.05 and 1.13, respectively.
Turning to CATTGC, the results for the binding signal in the assay with ETS1 and with SPDEF were 1.03 and 0.954, respectively.

For the origin of these results see article PMC7862700.
